From US20260226037A1, “MICROTUBULE TARGETING AGENTS” (ARIEL SCIENTIFIC INNOVATIONS LTD., priority 2022, published 2026)

Key:
Format in all cases: cell-based
[1] = test system: RPMI-DOX40 cells; test: XTT cytotoxicity, RPMI-DOX40
Method: (§1) The cytotoxic activity of the novel family was evaluated against various tumor cells, including myeloma cells, acute lymphoblastic leukemia cells, acute monocytic leukemia cells, chronic myelogenous leukemia cells, pancreatic cancer cells, breast cancer cells, uterine sarcoma cells, cervix adenocarcinoma cells, ovary cancer cells, melanoma cells, osteosarcoma cells, prostate cancer cells, lung cancer cells, neuroblastoma cells and colorectal adenocarcinoma cells by XTT assay.

[2] = test system: RPMI-LR5 cells; test: XTT cytotoxicity, RPMI-LR5
Method: as §1

[3] = test system: RPMI-MR20 cells; test: XTT cytotoxicity, RPMI-MR20
Method: as §1

[4] = test system: MM1.S cells; test: XTT cytotoxicity, MM1.S; conditions: Homo sapiens
Method: as §1

[5] = test system: MM1.R cells; test: XTT cytotoxicity, MM1.R; conditions: MM.1R
Method: as §1

[6] = test system: MES-SA/DX5 cells; test: XTT cytotoxicity, MES-SA/DX5; conditions: Homo sapiens
Method: as §1

Compound: COc1cc2c(c(OC)c1OC)-c1ccc(OC)c(=O)cc1[C@@H](NC(C)=O)CC2 [Colchicine, reference compound]
- IC50 [1]: > 60 nM
- IC50 [2]: > 60 nM
- IC50 [3]: 33 nM
- IC50 [4]: 13 nM
- IC50 [5]: 270 nM
- IC50 [6]: 700 nM
